A short description of the experiment: qHTS Assay to Find Inhibitors of Chronic Active B-Cell Receptor Signaling. The conditions noted are these: ABC-DLBCL IkBa-CBG/CBR reporter, luminescence ratio (green luciferase fused to IkBa over red control in TMD8 lymphoma cells), 4 h. In short, it runs like this: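 Doxycycline induced both beetle luciferases in TMD8 lymphoma cells; IKK-driven degradation limits the IkappaBalpha-fused green signal, while red luminescence normalises for cell number and nonspecific effects. Compounds tested up to 46 uM, 4 hrs.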
In general terms: In qHTS, concentration-response curves come from the screen itself.

Setting [1] is: measured here: CBR red luminescence, cell number.
The mark [2] stands for this setting: measured here: IkBa-CBG green luminescence.

AC50 data for 65 compounds are collected here from PubChem BioAssay AID493014 (National Center for Advancing Translational Sciences (NCATS), 2011).

This is one part of the list. Further columns of the screen follow, without active or inactive calls. Most of these compounds were active or inconclusive in the main read-out, so they are no random draw. The note in brackets gives the kind of curve behind each potency; many fits are weak.

In general, AC50 refers to the concentration giving half of the maximal activity seen.

Consider `N#Cc1c(N)n[nH]c1CCCN`, for which the AC50 under setting [1] is 29.1 µM [rising, single point]. The same measure, in the same setting: then `Cc1oc2ccccc2c1CC(=O)NCCCN(C)C`, with 3.55 µM [rising, single point]; and `COc1ccc([C@H]2CC(=O)C=C(c3cc(Cl)ccc3C)C2)cc1`, with 0.731 µM [rising, full curve, poor fit]; and `CN(C(=O)c1cccc(NC(=O)Cc2cccc([N+](=O)[O-])c2)c1)C1CCCC1`, with 18.4 µM [falling, single point]. For the compound `Cc1c(NC(=O)c2cnn3cccnc23)c(=O)n(-c2ccccc2)n1C`, the AC50 under setting [1] is 0.411 µM [rising, full curve, poor fit].

`COc1ccc(OC)c(NC(=O)C2CCN(Cc3cnn(-c4ccccc4)c3-n3cccc3)CC2)c1`: the AC50 under setting [1] was 5.17 µM [rising, full curve, poor fit]. On the same count and under the same terms, under `Cc1ccccc1-n1cnnc1SCC(=O)N1CCN(c2ccccc2)CC1` stands 18.4 µM [rising, single point]; under `COc1ccccc1N(CC(=O)NCc1ccccc1)C(=O)CCC(=O)Nc1cc(C)ccn1`, 6.51 µM [falling, partial curve].

For the compound `Cc1nc(-c2ccccc2)sc1C1(C)CC(c2ccc(C#N)cc2)=NO1` (stereo unspecified), the AC50 under setting [1] is 20 µM [rising, partial curve, poor fit]. Still for that read-out and setting: under `COc1ccc(NC(=O)C2CCCN(c3nc(C)cc(C)n3)C2)cc1` (stereo unspecified) stands 12.6 µM [rising, partial curve, poor fit]; under `COCCSc1ccccc1C(=O)Nc1nnc(COC)s1`, 18.4 µM [rising, single point]; under `N#Cc1ccc(C2N=C(c3ccccc3)NO2)cc1` (stereo unspecified), 14.1 µM [falling, single point]. For the compound `COc1ccc(Nc2nc(NC(C)(C)C)nc(N3CCCC3)n2)c(OC)c1`, under setting [1], the AC50 is 23.1 µM [rising, partial curve]. As to `COc1ccc(Cl)cc1C(=O)Nc1ccccc1N1CCN(C)CC1`, the AC50 under setting [1] was 23.1 µM [falling, single point]. In the case of `Cc1ccc(-n2nnnc2CNC(=O)c2ccc([N+](=O)[O-])o2)cc1C`, the AC50 under setting [1] was 20.6 µM [falling, partial curve, poor fit]. For the compound `C#CCSc1nnc(-c2ccccc2)c(=O)[nH]1`, under setting [1], the concentration at half-maximal activity (AC50) is 8.2 µM [falling, partial curve]. Same read-out and setting: then `CCOc1ccccc1NC(=O)CSc1nnc(-c2ccccn2)n1Cc1ccco1`, with 35.5 µM [falling, single point]; and `CC(=O)N1CCN(CC(O)COc2ccc(S(=O)(=O)N3CCOCC3)cc2)CC1` (stereo unspecified), with 18.4 µM [rising, partial curve, poor fit]; and `Nc1nnc(CSCc2ccc(F)cc2)s1`, with 5.17 µM [rising, full curve, poor fit]. Still for that read-out and setting: then `O=C(COC(=O)c1ccccc1NC(=O)c1ccccc1)c1cccc([N+](=O)[O-])c1`, with 4.11 µM [falling, partial curve]; and `Cc1[nH]c(=O)[nH]c(=O)c1S(=O)(=O)NCC12CC3CC(CC(C3)C1)C2`, with 0.206 µM [rising, full curve, poor fit].

As to `COc1cccc(C2NC(=S)NC(C)=C2C(=O)c2ccccc2)c1OC` (stereo unspecified), the AC50 by setting is: under setting [1], 8.91 µM [rising, partial curve, poor fit]; under setting [2], 8.91 µM [falling, partial curve]. As to `COc1ccc(C(C)=O)cc1CSc1nc2cc(Cl)ccc2o1`, the AC50 under setting [1] is 1.46 µM [rising, partial curve]. As to `O=C(Nc1nc2ccccc2[nH]1)c1cccc(Cl)c1`, under setting [1], the AC50 is 4.47 µM [falling, partial curve, poor fit].

`CCOC(=O)C1CCN(C(=O)c2cc3c(C)cc(C)cc3[nH]2)CC1`: the AC50 under setting [1] is 0.447 µM [falling, full curve, poor fit].

For `O=C1C(Cl)=C(NC2CCCCC2)C(=O)N1Cc1ccccc1`, the AC50 under setting [1] is 5.62 µM [rising, partial curve]. Same read-out and setting: under `CCOC(=O)CN1C(=O)CCSc2ccc(Cl)cc21` stands 14.1 µM [rising, partial curve, poor fit]; under `CC1CCN(C(c2ccccc2)c2nnnn2C(C)(C)C)CC1` (stereo unspecified), 0.731 µM [falling, partial curve, poor fit]. Still for that read-out and setting: then `CCn1c(=O)c(C(=O)NNC(=O)c2ccccc2Br)c(O)c2ccccc21`, with 0.631 µM [falling, full curve]; and `C[C@@H]1C[C@H]2[C@@H]3CCC4=CC(=O)C=C[C@]4(C)[C@@]3(F)[C@@H](O)C[C@]2(C)[C@H]1C(=O)CO`, with 0.092 µM [rising, full curve, poor fit]. On the same count and under the same terms, then `CCc1noc(C)c1C(=O)Nc1nc(-c2ccccc2)cs1`, with 29.1 µM [falling, single point]; and `Cc1ccc2nc(NCCc3ccc(Cl)cc3)c3nncn3c2c1`, with 17.8 µM [rising, partial curve, poor fit]. For `CC/C(=N\NC(N)=O)c1ccc(OC)c(OC)c1`, the AC50 under setting [1] was 1.58 µM [rising, partial curve]. For the compound `Cc1cc(C)c2c(-n3cccc3)nn(C)c2n1`, the AC50 under setting [1] is 0.1 µM [rising, full curve, poor fit].

For `Cc1cc(C)cc(NC(=O)C2CCCN2S(=O)(=O)c2cccc3cccnc23)c1` (stereo unspecified), the AC50 under setting [1] was 5.01 µM [rising, partial curve, poor fit].

Take `COc1ccc(C[C@H]2CN3C(=NC[C@@H]3Cc3ccc(O)cc3)N2C[C@H](C)NC(=O)c2ccc(C)c(Br)c2)cc1`: under setting [1], the AC50 is 14.1 µM [falling, partial curve]. Regarding `CCc1ccc(N2CC(C(=O)N3CCCC3)CC2=O)cc1` (stereo unspecified), the AC50 under setting [1] is 8.91 µM [rising, partial curve, poor fit]. With `O=C(COC(=O)c1cccc([N+](=O)[O-])c1)c1ccc(OCc2ccccc2)cc1`, the AC50 under setting [1] was 4.11 µM [rising, full curve, poor fit]. Still for that read-out and setting: then `C=CCOC(=O)C1=C(C)NC(=S)NC1/C=C/c1ccccc1` (stereo unspecified), with 10 µM [falling, partial curve, poor fit]; and `CCc1cc2c(Nc3ccc(O)cc3)nc(C)nc2s1`, with 35.5 µM [falling, single point]; and `Cc1oc2c(c1C(=O)NCc1cccnc1)C(=O)c1ccccc1C2=O`, with 2.82 µM [falling, full curve]. Take `CS(=O)(=O)Nc1ccc(C2=NN(C(=O)c3ccco3)C(c3cccc(F)c3)C2)cc1` (stereo unspecified): the AC50 under setting [1] is 22.4 µM [falling, single point]. Turning to `O=[N+]([O-])c1ccc(CN2CCCCCC2)s1`, under setting [1], the AC50 was 18.4 µM [rising, partial curve, poor fit]. Same read-out and setting: then `O=C(NC(=S)N1CCN(Cc2ccccc2)CC1)c1ccccc1`, with 29.1 µM [rising, single point].

As to `CCOC(=O)/C=C(\C)Nc1cc(C)nn1-c1ccccc1`, under setting [1], the AC50 is 10 µM [falling, single point]. For `COCCCNC(=S)Nc1cccc(S(=O)(=O)NC2=NCCC2)c1`, the AC50 under setting [1] was 35.5 µM [rising, single point]. Same read-out and setting: under `CCOc1ccc(CN(C)CC(O)COC(c2ccc(OC)cc2)c2ccc(OC)cc2)cc1` (stereo unspecified) stands 14.1 µM [falling, partial curve]; under `COc1ccccc1NC(=O)c1c(C)nc2ccccc2c1C(=O)O`, 35.5 µM [falling, single point]. Take `Cc1ccccc1N(CC(=O)NCCc1ccccc1)C(=O)c1ccc(N2CCCC2)nc1`: the half-maximal activity concentration (AC50) under setting [1] is 11.2 µM [falling, single point]. Turning to `COc1ccc(/C=C/C(=O)NC(=S)NNC(=O)[C@H]2C[C@@H]2c2ccccc2)cc1OC`, the AC50 under setting [1] is 3.98 µM [rising, single point]. On the same count and under the same terms, then `O=C(c1ccc(F)cc1)C1CCN(C(=S)Nc2ccc(F)cc2)CC1`, with 14.1 µM [falling, single point]; and `O=C(CSc1nnc(-c2ccccc2)c(-c2ccccc2)n1)Nc1ncc(Cl)cc1Cl`, with 0.411 µM [rising, partial curve, poor fit]; and `O=C(CCS(=O)(=O)c1ccccc1)Nc1nc2c(s1)CCCC2`, with 23.1 µM [falling, single point]. As to `CC(OC(=O)c1cccs1)C(=O)Nc1nc(-c2ccccc2)cs1` (stereo unspecified), under setting [2], the AC50 was 6.51 µM [rising, partial curve, poor fit]. For `Cc1cc(C)n(CCC(=O)N=Nc2c(O)[nH]c3ccc(Br)cc23)n1`, the AC50 under setting [1] is 11.2 µM [falling, single point]. On the same count and under the same terms, then `O=C(N/N=C/c1ccc(Cl)cc1)C1CC12CCC2` (stereo unspecified), with 14.1 µM [falling, single point]; and `Cc1c(C(=O)N2CCN(CCc3ccccn3)CC2)oc2ccc(Cl)cc12`, with 14.1 µM [falling, single point]. Regarding `COc1cccc(NC(=O)CC2C(=O)NC3CCCCC3N2C(=O)c2ccc(F)cc2)c1` (stereo unspecified), the AC50 under setting [2] is 29.1 µM [falling, single point]. Regarding `CCn1cnc2cc(NCc3ccccc3Cl)ccc21`, the AC50 under setting [1] was 4.47 µM [falling, partial curve].

In the case of `CCCn1c(=O)c2c(c3ccccc31)OCC(=O)N2`, the AC50 under setting [1] is 2.91 µM [rising, partial curve, poor fit]. On to `O=C(C[n+]1cccc(CNC(=O)c2ccc(OC(F)F)cc2)c1)Nc1ccc(F)cc1`, for which, under setting [1], the AC50 is 29.1 µM [falling, single point]. Still for that read-out and setting: then `CC(NC(=O)COC(=O)c1ccccc1SCC(=O)N1CCCC1)c1ccccc1` (stereo unspecified), with 20.6 µM [rising, partial curve, poor fit]; and `CN1CCc2c(sc(/N=C/c3cc(Cl)ccc3O)c2C#N)C1`, with 20 µM [falling, single point].

For the compound `COc1ccccc1-c1nc(C#N)c(N2CCCCCC2)o1`, the AC50 under setting [1] is 32.6 µM [falling, single point]. The same measure, in the same setting: then `CCCNC(=O)c1ccccc1NC(=O)c1ccc(CSc2ccccc2)cc1`, with 18.4 µM [rising, partial curve, poor fit].
